Source: article PMC4841768
These are yes or no findings as the source states them, for the method shown. Binding seen in cells or lysates may run through a third protein. Some binding calls cover weakened binding; strength is not graded here.

Sequences of proteins named here, by UniProt entry; tags and fusion partners are left off. A change or cut given only in a name is not applied to a line headed by its entry.
UniProt P48432: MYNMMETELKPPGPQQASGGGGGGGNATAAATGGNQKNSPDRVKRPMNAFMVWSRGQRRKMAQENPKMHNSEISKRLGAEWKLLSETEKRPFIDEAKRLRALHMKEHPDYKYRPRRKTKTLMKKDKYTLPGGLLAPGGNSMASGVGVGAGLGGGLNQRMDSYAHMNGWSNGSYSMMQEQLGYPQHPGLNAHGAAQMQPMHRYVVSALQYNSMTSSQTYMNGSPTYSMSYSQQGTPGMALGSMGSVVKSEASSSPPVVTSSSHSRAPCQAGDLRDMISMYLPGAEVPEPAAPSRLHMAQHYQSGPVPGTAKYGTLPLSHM
UniProt Q8VHR5: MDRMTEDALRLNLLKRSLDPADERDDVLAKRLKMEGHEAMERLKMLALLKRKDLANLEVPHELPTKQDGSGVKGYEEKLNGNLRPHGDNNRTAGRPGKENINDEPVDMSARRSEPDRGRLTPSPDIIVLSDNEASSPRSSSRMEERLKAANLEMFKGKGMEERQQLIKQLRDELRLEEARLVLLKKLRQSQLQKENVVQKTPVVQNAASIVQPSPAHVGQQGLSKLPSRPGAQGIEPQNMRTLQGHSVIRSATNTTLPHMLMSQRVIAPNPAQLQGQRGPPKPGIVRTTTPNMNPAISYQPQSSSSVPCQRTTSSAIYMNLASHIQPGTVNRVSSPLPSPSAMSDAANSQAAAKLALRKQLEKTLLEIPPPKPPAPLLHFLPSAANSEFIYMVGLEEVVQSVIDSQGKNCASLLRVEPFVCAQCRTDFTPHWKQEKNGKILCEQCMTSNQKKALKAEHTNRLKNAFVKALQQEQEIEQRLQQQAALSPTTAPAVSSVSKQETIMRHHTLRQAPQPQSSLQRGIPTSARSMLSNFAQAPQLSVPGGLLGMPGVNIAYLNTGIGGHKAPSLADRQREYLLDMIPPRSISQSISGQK
UniProt P11103: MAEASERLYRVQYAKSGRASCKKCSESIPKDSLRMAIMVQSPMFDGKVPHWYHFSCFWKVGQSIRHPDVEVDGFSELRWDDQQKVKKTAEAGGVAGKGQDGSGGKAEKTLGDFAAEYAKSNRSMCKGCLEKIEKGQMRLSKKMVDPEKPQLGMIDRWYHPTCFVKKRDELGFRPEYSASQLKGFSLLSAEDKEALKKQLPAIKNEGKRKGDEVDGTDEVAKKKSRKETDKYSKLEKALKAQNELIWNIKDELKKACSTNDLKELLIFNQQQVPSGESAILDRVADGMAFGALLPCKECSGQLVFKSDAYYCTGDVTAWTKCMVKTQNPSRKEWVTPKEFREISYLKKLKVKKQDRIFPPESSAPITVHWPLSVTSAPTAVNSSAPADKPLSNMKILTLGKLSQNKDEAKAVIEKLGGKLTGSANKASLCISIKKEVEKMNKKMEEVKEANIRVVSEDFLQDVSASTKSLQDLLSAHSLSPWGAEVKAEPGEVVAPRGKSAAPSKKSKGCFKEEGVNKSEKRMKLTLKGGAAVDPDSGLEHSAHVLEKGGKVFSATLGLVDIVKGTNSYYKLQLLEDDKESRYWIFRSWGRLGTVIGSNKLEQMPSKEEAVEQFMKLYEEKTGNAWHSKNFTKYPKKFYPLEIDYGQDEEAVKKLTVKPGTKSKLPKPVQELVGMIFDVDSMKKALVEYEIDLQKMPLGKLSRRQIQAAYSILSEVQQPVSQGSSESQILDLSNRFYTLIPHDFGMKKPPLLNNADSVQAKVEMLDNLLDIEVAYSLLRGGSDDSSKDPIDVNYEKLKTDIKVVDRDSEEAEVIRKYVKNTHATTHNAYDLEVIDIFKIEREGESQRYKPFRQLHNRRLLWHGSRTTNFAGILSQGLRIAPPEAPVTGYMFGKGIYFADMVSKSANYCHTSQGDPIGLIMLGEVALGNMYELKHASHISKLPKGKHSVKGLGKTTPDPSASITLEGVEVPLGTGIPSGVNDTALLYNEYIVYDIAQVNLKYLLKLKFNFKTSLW
UniProt Q3TKT4: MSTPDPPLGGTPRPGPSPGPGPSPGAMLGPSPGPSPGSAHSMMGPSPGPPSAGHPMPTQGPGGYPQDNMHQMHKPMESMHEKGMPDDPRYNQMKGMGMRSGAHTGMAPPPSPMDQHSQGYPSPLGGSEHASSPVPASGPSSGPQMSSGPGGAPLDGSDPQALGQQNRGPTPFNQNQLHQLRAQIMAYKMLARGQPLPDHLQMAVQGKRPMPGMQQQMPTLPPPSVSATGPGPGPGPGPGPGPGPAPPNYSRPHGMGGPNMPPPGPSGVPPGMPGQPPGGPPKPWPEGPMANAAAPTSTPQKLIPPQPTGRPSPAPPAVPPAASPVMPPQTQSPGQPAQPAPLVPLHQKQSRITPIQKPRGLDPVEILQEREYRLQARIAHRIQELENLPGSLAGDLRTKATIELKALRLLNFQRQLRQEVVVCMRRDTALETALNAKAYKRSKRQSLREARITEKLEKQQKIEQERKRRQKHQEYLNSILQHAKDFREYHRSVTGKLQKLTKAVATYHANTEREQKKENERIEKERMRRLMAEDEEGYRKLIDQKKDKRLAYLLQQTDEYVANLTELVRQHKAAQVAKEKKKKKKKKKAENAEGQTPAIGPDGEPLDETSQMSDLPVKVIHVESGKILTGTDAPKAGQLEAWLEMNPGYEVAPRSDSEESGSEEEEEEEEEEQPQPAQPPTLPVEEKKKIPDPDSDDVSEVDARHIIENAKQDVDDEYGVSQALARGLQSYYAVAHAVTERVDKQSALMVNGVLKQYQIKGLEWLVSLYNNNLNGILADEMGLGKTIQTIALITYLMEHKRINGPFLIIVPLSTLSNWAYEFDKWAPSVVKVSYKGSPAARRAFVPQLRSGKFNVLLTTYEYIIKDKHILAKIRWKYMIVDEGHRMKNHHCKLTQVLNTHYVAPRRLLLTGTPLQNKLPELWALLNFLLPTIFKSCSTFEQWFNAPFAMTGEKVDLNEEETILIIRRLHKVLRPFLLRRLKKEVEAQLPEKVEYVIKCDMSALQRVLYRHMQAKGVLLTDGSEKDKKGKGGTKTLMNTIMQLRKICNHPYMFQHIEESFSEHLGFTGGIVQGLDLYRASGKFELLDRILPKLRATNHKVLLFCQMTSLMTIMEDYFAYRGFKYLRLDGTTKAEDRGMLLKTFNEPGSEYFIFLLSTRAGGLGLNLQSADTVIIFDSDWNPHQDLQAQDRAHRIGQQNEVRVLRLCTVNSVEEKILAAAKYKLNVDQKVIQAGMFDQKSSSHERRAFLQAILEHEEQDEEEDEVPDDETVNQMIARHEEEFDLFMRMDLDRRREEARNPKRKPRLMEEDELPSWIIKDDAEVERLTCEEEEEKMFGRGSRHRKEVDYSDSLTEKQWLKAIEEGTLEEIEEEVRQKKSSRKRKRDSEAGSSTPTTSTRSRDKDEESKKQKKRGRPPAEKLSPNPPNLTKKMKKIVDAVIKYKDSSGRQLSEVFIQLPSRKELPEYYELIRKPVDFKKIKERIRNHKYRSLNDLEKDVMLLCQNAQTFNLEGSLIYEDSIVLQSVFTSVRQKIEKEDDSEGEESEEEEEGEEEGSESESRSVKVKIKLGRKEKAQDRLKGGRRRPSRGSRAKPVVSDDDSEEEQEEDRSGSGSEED

Each substance was assayed against 3xFLAG-tagged O-GlcNAc-deficient SOX2 S248A (3xF-SOX2^S248A) of fS248A-Tg mESCs (mouse) (UniProt P48432) (assay: co-IP; anti-FLAG IP from nuclear extracts of fSOX2-Tg and fS248A-Tg mESCs, eluted with 2X SDS-PAGE loading buffer, Western blot for SOX2, PARP1, GATAD2B, SMARCA4).

binding, binds:
GATAD2B (mouse, endogenous in mESCs) (from UniProt Q8VHR5 1-594)
PARP1 (mouse, endogenous in mESCs) (from UniProt P11103 1-1013)
SMARCA4 (mouse, endogenous in mESCs) (from UniProt Q3TKT4 1-1613)
